Our source for the binding values is paper PMC5622306.

Protein sequences, listed by entry. Tags and fused reporters are not part of them. Residues count along the entry.
UniProt Q9Y6W8, residues 21-199: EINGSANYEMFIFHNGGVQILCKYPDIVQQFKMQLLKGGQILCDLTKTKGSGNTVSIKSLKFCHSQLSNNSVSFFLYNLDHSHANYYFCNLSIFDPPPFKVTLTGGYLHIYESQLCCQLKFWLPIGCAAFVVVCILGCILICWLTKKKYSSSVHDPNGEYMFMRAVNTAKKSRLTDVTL
UniProt Q9JHJ8, residues 47-277: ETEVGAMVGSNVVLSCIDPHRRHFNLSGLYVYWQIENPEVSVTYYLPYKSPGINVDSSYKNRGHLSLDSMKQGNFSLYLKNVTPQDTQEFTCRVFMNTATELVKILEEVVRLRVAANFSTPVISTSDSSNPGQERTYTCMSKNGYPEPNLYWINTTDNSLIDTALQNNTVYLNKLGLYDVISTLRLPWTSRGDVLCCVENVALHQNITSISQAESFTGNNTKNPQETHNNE

The target in this test is human ICOS receptor (inducible costimulator) on CHO cells (human) (UniProt Q9Y6W8). The test is described as follows: cell-based ligand-receptor blocking assay (HRP read-out on adherent cells); CHO cells expressing human ICOS in 96-well plates; ICOSL-hFc (20 µl at 450 ng/ml) preincubated 1 h with serially diluted anti-ICOSL VNAR, added to cells 1 h at 16°C in DMEM/F12 + 2% FBS; bound ICOSL-hFc detected with goat anti-human Fc-HRP; only the binder purified.

Results are given in words; binding and its absence hold for the method and conditions named. Some binding calls cover weakened binding; strength is not graded here.

Take “recombinant mouse B7-H2/Fc (mICOSL-Fc) (from UniProt Q9JHJ8 47-277) (Fc fusion)”: the binding entry was “binds”.
